Article PMC5216965
Results are given in words; binding and its absence hold for the method and conditions named. Binding seen in cells or lysates may run through a third protein. A result given as binding can be weak or reduced; the word gives no strength.

Chains of the proteins cited; added tags and fusions are not shown. Lines headed by an entry give the natural chain unless they say otherwise; changes in a name come on top.
UniProt Q8N726: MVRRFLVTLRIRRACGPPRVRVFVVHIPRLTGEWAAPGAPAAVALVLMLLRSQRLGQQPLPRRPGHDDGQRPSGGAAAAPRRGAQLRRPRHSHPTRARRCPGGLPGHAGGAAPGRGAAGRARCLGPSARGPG
UniProt P09237: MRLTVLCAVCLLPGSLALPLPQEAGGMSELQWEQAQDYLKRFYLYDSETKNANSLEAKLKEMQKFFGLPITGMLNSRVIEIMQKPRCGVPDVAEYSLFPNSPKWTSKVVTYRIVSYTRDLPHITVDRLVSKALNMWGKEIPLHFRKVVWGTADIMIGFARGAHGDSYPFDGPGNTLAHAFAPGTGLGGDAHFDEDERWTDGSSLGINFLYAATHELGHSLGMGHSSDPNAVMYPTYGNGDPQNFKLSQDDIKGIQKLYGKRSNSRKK

Target: Myc-tagged p14^ARF (human) (UniProt Q8N726)
Test: co-IP; HEK293T cells co-transfected with GFP-MMP7 and Myc-p14^ARF; lysates collected 48 hrs post-transfection in RIPA buffer (1X PBS pH 7.4, 2 mM EDTA, 1% Triton X-100, 0.5% sodium deoxycholate, protease inhibitor); immunoprecipitated with anti-Myc or anti-GFP for 1 hr in cold room, A/G plus agarose beads, IgG as control; Western blot

With GFP-tagged MMP7 (from UniProt P09237) the binding was “binds”.
